PubChem BioAssay AID528 (NMMLSC, 2006)
The campaign covered roughly 24,000 compounds. Fewer than 10 were called active. The inconclusive results got no clear call from the source; some entries with a clear call stand among them for comparison.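 Rule for the calls: active = fluorescent ligand binding to cells raised by more than 40% of the manganese-induced maximum; inconclusive = compound's own fluorescence above 85% of the ligand control signal; inactive = the rest.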

The chains behind the UniProt entries cited, without tags or fusion partners.
UniProt P13612, whole entry, looked up: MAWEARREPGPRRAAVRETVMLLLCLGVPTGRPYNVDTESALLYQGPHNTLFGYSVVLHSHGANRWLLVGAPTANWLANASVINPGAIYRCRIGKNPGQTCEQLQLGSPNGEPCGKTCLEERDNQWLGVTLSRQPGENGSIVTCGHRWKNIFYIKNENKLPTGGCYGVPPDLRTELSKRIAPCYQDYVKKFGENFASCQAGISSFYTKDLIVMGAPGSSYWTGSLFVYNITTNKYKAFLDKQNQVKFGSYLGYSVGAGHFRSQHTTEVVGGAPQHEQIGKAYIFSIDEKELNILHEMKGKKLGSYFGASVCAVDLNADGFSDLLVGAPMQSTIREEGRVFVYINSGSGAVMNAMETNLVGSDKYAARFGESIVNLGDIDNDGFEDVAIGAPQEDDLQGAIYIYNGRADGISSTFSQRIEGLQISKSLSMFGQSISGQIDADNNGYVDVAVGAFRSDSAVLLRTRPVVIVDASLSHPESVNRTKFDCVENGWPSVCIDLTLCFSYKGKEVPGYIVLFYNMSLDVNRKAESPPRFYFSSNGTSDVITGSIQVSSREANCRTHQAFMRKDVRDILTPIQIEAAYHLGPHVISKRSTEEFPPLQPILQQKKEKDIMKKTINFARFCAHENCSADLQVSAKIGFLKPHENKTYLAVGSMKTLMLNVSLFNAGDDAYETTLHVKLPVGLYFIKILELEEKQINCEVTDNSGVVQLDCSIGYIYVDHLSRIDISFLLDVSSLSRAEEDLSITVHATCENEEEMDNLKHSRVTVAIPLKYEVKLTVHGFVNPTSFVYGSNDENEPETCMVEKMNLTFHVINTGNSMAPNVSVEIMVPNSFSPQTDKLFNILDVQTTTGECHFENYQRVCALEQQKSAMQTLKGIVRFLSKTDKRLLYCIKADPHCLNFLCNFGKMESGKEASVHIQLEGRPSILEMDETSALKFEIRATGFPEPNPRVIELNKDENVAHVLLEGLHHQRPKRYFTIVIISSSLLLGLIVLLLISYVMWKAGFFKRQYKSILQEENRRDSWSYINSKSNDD

Target: Integrin alpha-4 (Homo sapiens) (UniProt P13612)
Assay: enhancers of LDV-FITC binding to VLA-4 integrin, primary screen, Jurkat cells, flow cytometry (AID 528);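 for activation: 0% = ligand binding without compound and 100% = manganese-stimulated maximal binding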
Conditions: stronger effect = higher value, screened at 10 µM (by protocol)

Row | Compound | activation
1 | CC(C)CCN1C(=O)CCC1(C)C(=O)NC1CCCCCC1 (configuration not stated) | inconclusive
2 | CCOC(=O)CSC1=C(C#N)C(c2ccccc2F)C(C(C)=O)=C(C)N1 (configuration not stated) | inconclusive
3 | Brc1cccc(-c2cnc3n2CCCCC3)c1 | inactive: -12%
4 | COC(=O)c1cc2occc2n1CC(=O)N(C)C1CCCCC1 | inconclusive
5 | CC(C)c1ccc(O)c(NC(=O)c2cncc(Br)c2)c1 | inconclusive
6 | CCn1c(=O)c2cc(C(=O)N3CCN(C(=O)c4ccco4)CC3)sc2c2ccccc21 | inactive: -2%
7 | Cn1c(=O)oc2cc(S(=O)(=O)NCCN3CCN(c4ccccc4F)CC3)ccc21 | inconclusive
8 | COc1ccc(CNC(=O)c2ccc3c(c2)N(C)C(=O)CS3=O)cc1 (configuration not stated) | inactive: 1%
9 | Cc1nc2ccc(S(=O)(=O)NCC(=O)NCCN3CCCCCC3)cc2s1 | inconclusive
10 | COc1cccc(N(C(=O)c2ccn[nH]2)C2(C(=O)Nc3c(C)cccc3C)CCCCC2)c1 | inactive: 3%
11 | COc1ccc(C(=O)N2CCN=C2SCc2cccnc2)c(OC)c1 | inactive: 4%
12 | Cc1nc2ccccc2n1CCc1nc2c3ccccc3nc(SCC(=O)NCc3ccco3)n2n1 | inconclusive
13 | CCCCN(CC)CCCNC(=O)c1cc2c(=O)n(C)c3ccccc3c2n1C | inactive: 2%
14 | CCOc1ccc(C2c3c(oc4ccccc4c3=O)C(=O)N2CCCN2CCOCC2)cc1OCC (configuration not stated) | inconclusive
15 | O=C(C1CCN(S(=O)(=O)c2ccc(Br)s2)CC1)N1CCc2ccccc21 | inconclusive
16 | CCOC(=O)c1ccc2c(c1)NC(=O)C(N1CCN(c3ccc(OC)cc3)CC1)S2 (configuration not stated) | inconclusive
17 | C=CCSc1nnc(-c2cc(Br)ccc2N)c(=O)[nH]1 | inconclusive
18 | CCOCC(=O)Nc1ccc(-c2cn3cccnc3n2)cc1 | inactive: 5%
19 | Cn1c(Cl)cnc1C1CC(=O)c2cc(Cl)ccc2O1 (configuration not stated) | inconclusive
20 | CC(C)CC1NC(=O)N(CC(=O)N2CCN(S(=O)(=O)c3ccc(Cl)cc3)CC2)C1=O (configuration not stated) | inactive: -2.5%
21 | Cc1ccc2oc(=O)c3cc(C(=O)N4CCN(C(=O)c5ccco5)CC4)sc3c2c1 | inactive: -5%

Row | Compound | activation
22 | O=C1OC(c2ccccc2)=C/C1=C\N1CCOCC1 | inconclusive
23 | O=C1CCc2cc(S(=O)(=O)N3CCC(C(=O)NC4CCCc5ccccc54)CC3)ccc2N1 (configuration not stated) | inconclusive
24 | O=C(CSc1nnc(Cn2c(=O)sc3ccccc32)n1-c1ccccc1)Nc1nccs1 | inactive: 0.7%
25 | CCN(CCNC(=O)c1cc(C)nn1-c1ccccc1)c1ccccc1 | inactive: -8%
26 | Cn1c(C(=O)N2CCN(c3ccc(Cl)cc3)CC2)cc2c(=O)[nH]c3ccccc3c21 | inconclusive
27 | O=C(NCc1ccco1)c1cc(-c2ccccc2)c(N2CCOCC2)s1 | inconclusive
28 | CCc1ccccc1NC(=O)c1nnn(CC(=O)Nc2cccc(C)c2C)c1N | inconclusive
29 | Cc1oc(-c2ccccc2F)nc1CN1CCC(C(=O)NCc2ccco2)CC1 | inconclusive
30 | Cc1cc2ccccc2c(=O)n1CC(=O)N1CCN(c2cccc(Cl)c2)CC1 | inconclusive
31 | O=C(NCCN1CCN(c2ccccc2)CC1)c1cccn2c(=O)c3ccccc3nc12 | inconclusive
32 | Nc1ccc2nc(-c3ccc(Cl)cc3)[nH]c2c1 | inconclusive
33 | CCCCN(C)c1nc(-c2ccco2)c2c(c1C#N)CC(C)(C)OC2 | inconclusive
34 | COCc1cc(C)nc2sc(C(=O)Nc3nccs3)c(N)c12 | inconclusive
35 | COc1ccccc1Cn1nnc2c(=O)[nH]c(C3CCN(C(=O)c4ccc(C)cc4)CC3)nc21 | inconclusive
36 | CCCCCOC(=O)C1=C(C)N(C)C(=O)NC1c1cc(Br)c(O)c(OC)c1 (configuration not stated) | inactive: -7%
37 | CCN1CCN(c2cc(C)c3cc(NC(=O)c4ccncc4)ccc3n2)CC1 | inactive: 0%
38 | O=C(NCc1ccc2c(c1)OCO2)Oc1ccccc1 | inactive: -1%
39 | O=C(c1noc2c1CCCCC2)N1CCN(C(c2ccccc2)c2ccccc2)CC1 | inactive: 2%
40 | COC(=O)CSCc1nc2ccccc2[nH]c1=O | inconclusive
41 | Cc1ccc(Cn2nnc3c(=O)n(Cc4cc(C)ccc4C)cnc32)cc1 | inactive: -4%
42 | CC(C)c1c(C#N)c(N)nc(SCC(=O)c2cc3ccccc3oc2=O)c1C#N | inconclusive

Part of the list above, as tab-separated lines.
Row	Compound	activation
1	CC(C)CCN1C(=O)CCC1(C)C(=O)NC1CCCCCC1 (configuration not stated)	inconclusive
11	COc1ccc(C(=O)N2CCN=C2SCc2cccnc2)c(OC)c1	inactive: 4%
37	CCN1CCN(c2cc(C)c3cc(NC(=O)c4ccncc4)ccc3n2)CC1	inactive: 0%

(next part)

Row | Compound | activation
43 | COCCNC(=O)C(c1ccc(O)cc1)N(Cc1ccco1)C(=O)CCC(=O)Nc1nccs1 (configuration not stated) | inconclusive
44 | O=C(NCC1COc2ccccc2O1)C1CCCN(S(=O)(=O)c2cccc3nsnc23)C1 (configuration not stated) | inconclusive
45 | COc1ccccc1CNC(=O)CCCN1C(=O)COc2ccc(C)cc21 | inactive: -11%
46 | COc1ccc(CCn2c(SCC(=O)Nc3cc(C)on3)nc3ccccc3c2=O)cc1OC | inconclusive
47 | COc1ccc2cc(CCNC(=O)C3CC3)c(=O)[nH]c2c1 | inconclusive
48 | O=C(CN1CCN(CCOCCO)CC1)N1c2ccccc2Sc2ccc(Cl)cc21 | inactive: -6%
49 | COc1ccccc1-c1cc(C(F)(F)F)nc(S(=O)(=O)CCCC(=O)N2CCCCC2C)n1 (configuration not stated) | inconclusive
50 | CCn1cc(C(=O)NC2CCCC2)c(=O)c2cc(S(=O)(=O)N3CCOCC3)ccc21 | inactive: -6%
51 | O=C(O)c1ccccc1NCc1ccncc1 | inconclusive
52 | COc1ccc(C2CC(c3ccccc3)Nc3ncnn32)cc1 (configuration not stated) | inconclusive
53 | CC(c1cccnc1)N(CCN(C)C)C(=O)Nc1ccc(Cl)c(Cl)c1 (configuration not stated) | inactive: -2%
54 | Cc1cccc2cc(CN(Cc3nnnn3Cc3ccco3)C3CCCC3)c3nnnn3c12 | inactive: -24.5%
55 | COc1cc2c(cc1OC)C(C(=O)NCc1cccnc1)C(c1cccnc1)N(C)C2=O (configuration not stated) | inactive: -5%
56 | COC(=O)c1nnn(CC(=O)Nc2cccc(Cl)c2C)c1C(=O)OC | inactive: 2.6%
57 | CC1CCC(NC(=O)Cn2cc3c(n2)CCCC3)CC1 (configuration not stated) | inconclusive
58 | CCOc1ccccc1NC(=O)Cn1nnc(C(=O)Nc2ccc(C)cc2)c1N | inconclusive
59 | Cc1ccc(C2CC(c3ccccc3Cl)n3nc(N)nc3N2)cc1 (configuration not stated) | inactive: 1%
60 | CC(=O)N1c2c(cc(Br)cc2S(=O)(=O)N2CCOCC2)CC1C (configuration not stated) | inconclusive
61 | CC1CN(C(=O)c2ccc3c(c2)OCO3)OC(c2ccccc2)O1 (configuration not stated) | inactive: 4%
62 | COC(=O)c1ccc(Cn2cnc3c(cnn3-c3ccc(Cl)cc3)c2=O)o1 | inactive: -20%
